{"source": "PubChem BioAssay AID652272 | Drosophila RNAi Screening Center – 2013", "purpose": "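Genome-wide knock-down search for components of Hedgehog signalling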 (primary screen)", "cell system": "Drosophila clone 8 (Cl8) cells", "knock-down reagent": "long dsRNA against Drosophila genes", "measurement": "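Plate reader light from a firefly reporter under a ptc promoter fragment that responds to Hedgehog, with Renilla light as transfection reference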", "direction": "firefly Hh reporter signal: higher = more ptc reporter light; Renilla reference signal: higher = more Renilla control light", "active means": "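Called a hit if the two-replicate mean z-score lies below -2 or above +3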", "calls": "active = hit: reporter lowered or raised; inactive = not a hit", "note": "In all, the deposit lists about 21,000 reagents; this is an unselected part of those that have a named target and a result. Of all reagents, 503 (2.4%) are marked active. 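Raw plate light values, not normalised; calls rest on replicate z-scores that were not deposited; hits include reporter decreases as well as increases.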 A number with no mark means an inactive call. The numbers tell different reagents against one gene apart. No sequences are given here. Not stated in the record: the amount of reagent, the time to read-out."}
{"Target gene":"CG12490","reagent no.":1,"firefly Hh reporter signal, replicate 1":74498,"firefly Hh reporter signal, replicate 2":63264,"Renilla reference signal, replicate 1":1644,"Renilla reference signal, replicate 2":6141}
{"Target gene":"CG32182","reagent no.":1,"firefly Hh reporter signal, replicate 1":1.65e5,"Renilla reference signal, replicate 1":3920}
{"Target gene":"CG11257","reagent no.":1,"firefly Hh reporter signal, replicate 1":79788,"firefly Hh reporter signal, replicate 2":66583,"Renilla reference signal, replicate 1":2215,"Renilla reference signal, replicate 2":4647}
{"Target gene":"CG8141","reagent no.":1,"firefly Hh reporter signal, replicate 1":85981,"firefly Hh reporter signal, replicate 2":87797,"Renilla reference signal, replicate 1":2716,"Renilla reference signal, replicate 2":2368}
{"Target gene":"CG43190","reagent no.":1,"firefly Hh reporter signal, replicate 1":1.01e5,"firefly Hh reporter signal, replicate 2":2.17e5,"Renilla reference signal, replicate 1":3033,"Renilla reference signal, replicate 2":9059}
{"Target gene":"chinmo","reagent no.":1,"firefly Hh reporter signal, replicate 1":1.11e5,"firefly Hh reporter signal, replicate 2":1.55e5,"Renilla reference signal, replicate 1":4802,"Renilla reference signal, replicate 2":6153}
{"Target gene":"chinmo","reagent no.":2,"firefly Hh reporter signal, replicate 1":2.03e5,"firefly Hh reporter signal, replicate 2":1.82e5,"Renilla reference signal, replicate 1":4388,"Renilla reference signal, replicate 2":4377}
{"Target gene":"chinmo","reagent no.":3,"firefly Hh reporter signal, replicate 1":1.33e5,"firefly Hh reporter signal, replicate 2":99161,"Renilla reference signal, replicate 1":3218,"Renilla reference signal, replicate 2":2585}
{"Target gene":"CG12325","reagent no.":1,"firefly Hh reporter signal, replicate 1":88040,"firefly Hh reporter signal, replicate 2":52573,"Renilla reference signal, replicate 1":3645,"Renilla reference signal, replicate 2":2154}
{"Target gene":"CPT2","reagent no.":1,"firefly Hh reporter signal, replicate 1":1.86e5,"firefly Hh reporter signal, replicate 2":95808,"Renilla reference signal, replicate 1":6821,"Renilla reference signal, replicate 2":1315}
{"Target gene":"mRpL37","reagent no.":1,"firefly Hh reporter signal, replicate 1":64336,"firefly Hh reporter signal, replicate 2":97725,"Renilla reference signal, replicate 1":1330,"Renilla reference signal, replicate 2":2528}
{"Target gene":"CG5973","reagent no.":1,"firefly Hh reporter signal, replicate 1":1.10e5,"firefly Hh reporter signal, replicate 2":1.28e5,"Renilla reference signal, replicate 1":4548,"Renilla reference signal, replicate 2":5584}
{"Target gene":"CG3119","reagent no.":1,"firefly Hh reporter signal, replicate 1":1.16e5,"firefly Hh reporter signal, replicate 2":82036,"Renilla reference signal, replicate 1":2475,"Renilla reference signal, replicate 2":2246}
{"Target gene":"Nplp2","reagent no.":1,"firefly Hh reporter signal, replicate 1":32314,"firefly Hh reporter signal, replicate 2":42061,"firefly Hh reporter signal, replicate 3":39159,"Renilla reference signal, replicate 1":3579,"Renilla reference signal, replicate 2":2809}
{"Target gene":"Nemp","reagent no.":1,"firefly Hh reporter signal, replicate 1":1.01e5,"firefly Hh reporter signal, replicate 2":95824,"Renilla reference signal, replicate 1":1714,"Renilla reference signal, replicate 2":2384}
{"Target gene":"trio","reagent no.":1,"firefly Hh reporter signal, replicate 1":91865,"firefly Hh reporter signal, replicate 2":3.10e5,"Renilla reference signal, replicate 1":2459,"Renilla reference signal, replicate 2":10933}
{"Target gene":"trio","reagent no.":2,"firefly Hh reporter signal, replicate 1":"1.40e5 (active)","firefly Hh reporter signal, replicate 2":66593,"Renilla reference signal, replicate 1":3728,"Renilla reference signal, replicate 2":1803}
{"Target gene":"trio","reagent no.":3,"firefly Hh reporter signal, replicate 1":86253,"firefly Hh reporter signal, replicate 2":37673,"Renilla reference signal, replicate 1":2864,"Renilla reference signal, replicate 2":3129}
{"Target gene":"CG13299","reagent no.":1,"firefly Hh reporter signal, replicate 1":57345,"firefly Hh reporter signal, replicate 2":51660,"Renilla reference signal, replicate 1":6441,"Renilla reference signal, replicate 2":3760}
{"Target gene":"CG9449","reagent no.":1,"firefly Hh reporter signal, replicate 1":1.04e5,"firefly Hh reporter signal, replicate 2":86435,"Renilla reference signal, replicate 1":3228,"Renilla reference signal, replicate 2":2024}
{"Target gene":"Jhedup","reagent no.":1,"firefly Hh reporter signal, replicate 1":82487,"firefly Hh reporter signal, replicate 2":48748,"Renilla reference signal, replicate 1":2360,"Renilla reference signal, replicate 2":3029}
